At least one structure is not confirmed: it was looked up by name or label, or the drawing left a doubt.
Tested on: human neutrophils
Assay: Rate of NETs formation in PMA-stimulated neutrophils after pre-treatment, counted by confocal microscopy
Assay type: cell-based
Details: pre-treatment 2 mM for 30 minutes, then PMA 25 nM

CC(=O)N(O)CCCCCNC(=O)CCC(=O)N(O)CCCCCNC(=O)CCC(=O)N(O)CCCCCN [deferoxamine, reference compound]
formation of the NETs at plateau, compared with stimulation merely with PMA: not suppressed

From US20220031813A1, “INHIBITOR OF EXTRACELLULAR TRAP FORMATION IN LEUKOCYTES” (priority 2013, published 2022)
